This is an account of results in paper PMC10899377.

Chains of the proteins cited; added tags and fusions are not shown. Lines headed by an entry give the natural chain unless they say otherwise; changes in a name come on top.
UniProt Q9UKU9: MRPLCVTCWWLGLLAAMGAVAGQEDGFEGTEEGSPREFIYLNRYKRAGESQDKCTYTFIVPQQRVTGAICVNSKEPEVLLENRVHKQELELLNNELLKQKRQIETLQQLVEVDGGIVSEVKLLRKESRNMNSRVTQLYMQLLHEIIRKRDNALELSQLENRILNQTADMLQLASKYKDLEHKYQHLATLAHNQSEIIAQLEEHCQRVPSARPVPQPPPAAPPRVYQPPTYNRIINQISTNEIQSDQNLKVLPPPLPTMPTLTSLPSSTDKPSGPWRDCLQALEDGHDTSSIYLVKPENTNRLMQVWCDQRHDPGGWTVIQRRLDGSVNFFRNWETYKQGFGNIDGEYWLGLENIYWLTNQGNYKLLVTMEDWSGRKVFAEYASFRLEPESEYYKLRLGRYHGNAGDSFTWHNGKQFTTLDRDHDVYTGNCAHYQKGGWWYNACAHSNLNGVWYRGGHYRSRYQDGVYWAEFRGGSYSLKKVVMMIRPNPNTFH

The test addresses T1, HA-VPS33B-WT (full-length vacuolar protein sorting 33b) (UniProt Q9H267).
T1 sequence: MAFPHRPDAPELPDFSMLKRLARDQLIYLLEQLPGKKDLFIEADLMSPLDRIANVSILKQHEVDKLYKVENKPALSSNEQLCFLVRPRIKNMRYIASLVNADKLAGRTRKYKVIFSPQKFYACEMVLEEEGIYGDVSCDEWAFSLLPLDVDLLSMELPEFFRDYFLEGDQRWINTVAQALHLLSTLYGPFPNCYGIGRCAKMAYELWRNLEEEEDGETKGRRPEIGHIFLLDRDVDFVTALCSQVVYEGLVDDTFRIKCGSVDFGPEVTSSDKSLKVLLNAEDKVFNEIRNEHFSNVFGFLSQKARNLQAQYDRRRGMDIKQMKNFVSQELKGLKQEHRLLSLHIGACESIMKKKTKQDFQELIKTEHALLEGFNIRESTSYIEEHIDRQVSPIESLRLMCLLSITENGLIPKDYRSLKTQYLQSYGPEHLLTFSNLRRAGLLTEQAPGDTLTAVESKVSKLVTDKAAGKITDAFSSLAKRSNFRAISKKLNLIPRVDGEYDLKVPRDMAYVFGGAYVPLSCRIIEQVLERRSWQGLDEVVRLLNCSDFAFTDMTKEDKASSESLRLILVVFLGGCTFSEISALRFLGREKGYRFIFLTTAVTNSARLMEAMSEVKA
As to the kind of experiment: co-IP; HEK293T cells co-transfected with HA-VPS33B and Flag-ANGPTL2 plasmids; Pierce IP lysis buffer; lysates immunoprecipitated with anti-HA (plus Protein A/G agarose) or anti-Flag M2 beads overnight at 4 °C; beads washed ten times; Western blot.

No constants are given. Whether binding was seen depends on the method and setting. Binding seen in cells or lysates may run through a third protein. Binding calls can cover weak binding; strength is not graded here. Where a sequence is shown, tags or fusion partners need not be part of it.

On to “Flag-ANGPTL2-C (C-terminal region, aa247-aa471) (from UniProt Q9UKU9) (domain or fragment)”, for which the binding entry is on record as “binds”.

Turning to “Flag-ANGPTL2-N (N-terminal region, aa1-aa246) (from UniProt Q9UKU9) (domain or fragment)”, the binding result was “no binding”.
